# Data published in the supplement of paper PMC10849652.
# The chains behind the UniProt entries cited, without tags or fusion partners. Where a name states a change or a piece, a line headed by the entry shows the natural chain unless it says otherwise.
# UniProt Q9UQB8: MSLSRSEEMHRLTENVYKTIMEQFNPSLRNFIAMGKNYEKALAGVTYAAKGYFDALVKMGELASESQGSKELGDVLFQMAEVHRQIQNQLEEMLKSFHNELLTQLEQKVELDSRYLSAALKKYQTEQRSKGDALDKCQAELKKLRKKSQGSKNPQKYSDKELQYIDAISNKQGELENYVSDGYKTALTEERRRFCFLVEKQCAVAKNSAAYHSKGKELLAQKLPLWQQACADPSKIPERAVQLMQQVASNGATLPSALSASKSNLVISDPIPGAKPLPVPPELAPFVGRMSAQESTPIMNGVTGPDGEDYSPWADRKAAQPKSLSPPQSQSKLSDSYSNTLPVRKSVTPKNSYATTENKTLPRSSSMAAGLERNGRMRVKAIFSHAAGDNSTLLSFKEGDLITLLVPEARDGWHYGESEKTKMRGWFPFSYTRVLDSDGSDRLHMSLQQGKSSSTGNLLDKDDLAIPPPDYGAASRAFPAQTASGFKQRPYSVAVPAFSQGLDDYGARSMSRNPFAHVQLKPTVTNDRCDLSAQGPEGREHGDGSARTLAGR
# UniProt Q92843: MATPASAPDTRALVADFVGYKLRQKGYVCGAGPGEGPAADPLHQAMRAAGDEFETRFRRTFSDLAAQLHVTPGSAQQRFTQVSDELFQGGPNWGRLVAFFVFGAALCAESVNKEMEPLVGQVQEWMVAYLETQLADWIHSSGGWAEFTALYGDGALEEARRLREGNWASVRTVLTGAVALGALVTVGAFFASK
# UniProt Q9NYF8, whole entry, looked up: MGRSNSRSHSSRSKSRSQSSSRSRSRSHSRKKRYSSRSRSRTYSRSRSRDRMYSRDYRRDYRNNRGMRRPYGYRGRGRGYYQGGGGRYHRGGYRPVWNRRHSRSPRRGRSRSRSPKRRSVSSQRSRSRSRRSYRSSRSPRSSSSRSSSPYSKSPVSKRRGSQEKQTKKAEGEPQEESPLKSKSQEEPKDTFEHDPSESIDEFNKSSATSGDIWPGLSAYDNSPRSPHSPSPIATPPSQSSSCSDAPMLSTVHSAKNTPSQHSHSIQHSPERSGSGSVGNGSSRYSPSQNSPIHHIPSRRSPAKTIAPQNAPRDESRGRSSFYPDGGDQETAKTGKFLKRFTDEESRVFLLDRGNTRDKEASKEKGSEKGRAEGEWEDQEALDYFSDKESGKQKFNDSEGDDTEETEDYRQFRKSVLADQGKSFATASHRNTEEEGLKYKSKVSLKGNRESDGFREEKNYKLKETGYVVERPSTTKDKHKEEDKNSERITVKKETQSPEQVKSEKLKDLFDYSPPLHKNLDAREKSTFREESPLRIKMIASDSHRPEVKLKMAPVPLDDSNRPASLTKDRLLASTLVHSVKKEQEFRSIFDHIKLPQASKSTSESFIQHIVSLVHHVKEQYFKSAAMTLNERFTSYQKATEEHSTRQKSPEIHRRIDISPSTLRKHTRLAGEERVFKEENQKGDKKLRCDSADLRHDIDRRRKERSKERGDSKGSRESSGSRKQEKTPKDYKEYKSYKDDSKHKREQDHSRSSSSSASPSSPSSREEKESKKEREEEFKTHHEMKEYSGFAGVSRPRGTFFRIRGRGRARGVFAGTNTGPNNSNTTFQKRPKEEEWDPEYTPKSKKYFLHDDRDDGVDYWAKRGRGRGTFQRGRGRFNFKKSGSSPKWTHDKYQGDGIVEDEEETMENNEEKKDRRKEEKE
# UniProt Q07812, whole entry, looked up: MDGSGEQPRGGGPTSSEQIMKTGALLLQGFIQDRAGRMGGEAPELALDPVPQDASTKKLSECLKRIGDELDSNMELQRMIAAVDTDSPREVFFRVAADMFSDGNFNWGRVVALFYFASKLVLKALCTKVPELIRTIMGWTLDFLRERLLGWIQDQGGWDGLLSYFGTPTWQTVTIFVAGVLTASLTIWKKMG
# UniProt P46736, whole entry, looked up: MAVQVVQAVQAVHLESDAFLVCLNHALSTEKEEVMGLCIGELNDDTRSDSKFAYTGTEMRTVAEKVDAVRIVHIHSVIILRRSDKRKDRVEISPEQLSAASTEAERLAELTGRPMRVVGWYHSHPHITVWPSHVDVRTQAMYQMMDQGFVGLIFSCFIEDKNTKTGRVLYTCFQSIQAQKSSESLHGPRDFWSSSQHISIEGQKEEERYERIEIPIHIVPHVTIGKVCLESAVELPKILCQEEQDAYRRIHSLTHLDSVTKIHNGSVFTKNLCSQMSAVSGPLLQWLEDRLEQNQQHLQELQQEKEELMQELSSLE
# UniProt Q14137: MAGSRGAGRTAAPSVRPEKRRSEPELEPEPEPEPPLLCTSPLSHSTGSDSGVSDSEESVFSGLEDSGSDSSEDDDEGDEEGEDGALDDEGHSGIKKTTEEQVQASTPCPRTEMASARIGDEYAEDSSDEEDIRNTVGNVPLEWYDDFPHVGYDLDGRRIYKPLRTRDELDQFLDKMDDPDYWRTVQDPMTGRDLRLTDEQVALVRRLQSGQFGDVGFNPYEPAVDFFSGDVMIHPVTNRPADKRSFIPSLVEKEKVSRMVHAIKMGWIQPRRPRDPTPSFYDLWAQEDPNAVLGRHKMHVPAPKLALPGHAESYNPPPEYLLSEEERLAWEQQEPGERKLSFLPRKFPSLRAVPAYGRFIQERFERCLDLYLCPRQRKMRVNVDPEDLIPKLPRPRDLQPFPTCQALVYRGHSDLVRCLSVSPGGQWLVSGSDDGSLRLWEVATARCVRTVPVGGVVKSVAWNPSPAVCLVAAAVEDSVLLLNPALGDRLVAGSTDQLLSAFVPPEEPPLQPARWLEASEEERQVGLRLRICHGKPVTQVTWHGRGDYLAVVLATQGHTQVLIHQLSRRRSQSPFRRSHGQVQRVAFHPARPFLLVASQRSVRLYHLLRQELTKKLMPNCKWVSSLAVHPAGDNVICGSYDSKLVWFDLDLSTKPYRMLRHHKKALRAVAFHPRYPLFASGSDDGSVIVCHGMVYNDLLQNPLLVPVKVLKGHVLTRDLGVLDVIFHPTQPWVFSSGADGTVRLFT
# UniProt Q9NW68: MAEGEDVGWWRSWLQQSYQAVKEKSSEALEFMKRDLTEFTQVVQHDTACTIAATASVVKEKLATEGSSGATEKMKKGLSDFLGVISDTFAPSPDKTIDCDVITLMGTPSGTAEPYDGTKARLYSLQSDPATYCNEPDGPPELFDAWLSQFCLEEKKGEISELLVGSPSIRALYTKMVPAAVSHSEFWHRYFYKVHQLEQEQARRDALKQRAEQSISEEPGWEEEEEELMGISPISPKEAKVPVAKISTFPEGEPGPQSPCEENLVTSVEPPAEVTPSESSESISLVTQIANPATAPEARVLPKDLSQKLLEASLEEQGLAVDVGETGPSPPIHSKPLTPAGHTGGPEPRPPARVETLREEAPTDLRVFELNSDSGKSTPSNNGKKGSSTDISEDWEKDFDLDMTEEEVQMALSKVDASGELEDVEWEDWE
# UniProt Q92560: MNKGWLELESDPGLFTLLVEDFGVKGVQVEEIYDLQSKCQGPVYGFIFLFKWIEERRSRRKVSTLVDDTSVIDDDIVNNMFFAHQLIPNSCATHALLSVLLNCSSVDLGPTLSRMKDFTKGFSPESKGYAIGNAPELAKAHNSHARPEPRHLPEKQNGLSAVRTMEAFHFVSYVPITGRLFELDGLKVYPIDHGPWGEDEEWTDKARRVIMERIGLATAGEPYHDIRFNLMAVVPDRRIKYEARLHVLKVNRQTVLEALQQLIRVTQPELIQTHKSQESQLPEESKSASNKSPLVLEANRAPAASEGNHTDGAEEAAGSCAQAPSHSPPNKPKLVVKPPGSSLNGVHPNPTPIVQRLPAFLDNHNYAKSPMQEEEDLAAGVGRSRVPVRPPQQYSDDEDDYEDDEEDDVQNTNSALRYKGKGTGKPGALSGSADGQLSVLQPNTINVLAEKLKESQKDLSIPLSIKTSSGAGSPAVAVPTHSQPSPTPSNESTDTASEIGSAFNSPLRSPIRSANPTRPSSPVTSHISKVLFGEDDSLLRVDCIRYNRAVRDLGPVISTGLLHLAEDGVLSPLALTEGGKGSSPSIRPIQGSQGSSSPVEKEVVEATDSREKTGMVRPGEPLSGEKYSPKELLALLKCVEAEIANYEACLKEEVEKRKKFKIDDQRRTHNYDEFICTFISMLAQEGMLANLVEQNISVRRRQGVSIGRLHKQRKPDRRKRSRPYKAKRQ
# UniProt Q9BQE9, whole entry, looked up: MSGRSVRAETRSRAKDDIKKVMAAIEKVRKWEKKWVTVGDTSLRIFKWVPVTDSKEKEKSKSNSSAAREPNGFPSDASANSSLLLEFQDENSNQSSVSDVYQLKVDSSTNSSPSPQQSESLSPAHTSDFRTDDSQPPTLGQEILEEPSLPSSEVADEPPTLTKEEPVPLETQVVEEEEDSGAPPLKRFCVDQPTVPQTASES
# UniProt O75531: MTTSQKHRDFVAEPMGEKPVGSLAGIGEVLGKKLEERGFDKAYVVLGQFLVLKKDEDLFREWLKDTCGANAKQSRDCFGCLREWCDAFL
# UniProt Q6PJG6: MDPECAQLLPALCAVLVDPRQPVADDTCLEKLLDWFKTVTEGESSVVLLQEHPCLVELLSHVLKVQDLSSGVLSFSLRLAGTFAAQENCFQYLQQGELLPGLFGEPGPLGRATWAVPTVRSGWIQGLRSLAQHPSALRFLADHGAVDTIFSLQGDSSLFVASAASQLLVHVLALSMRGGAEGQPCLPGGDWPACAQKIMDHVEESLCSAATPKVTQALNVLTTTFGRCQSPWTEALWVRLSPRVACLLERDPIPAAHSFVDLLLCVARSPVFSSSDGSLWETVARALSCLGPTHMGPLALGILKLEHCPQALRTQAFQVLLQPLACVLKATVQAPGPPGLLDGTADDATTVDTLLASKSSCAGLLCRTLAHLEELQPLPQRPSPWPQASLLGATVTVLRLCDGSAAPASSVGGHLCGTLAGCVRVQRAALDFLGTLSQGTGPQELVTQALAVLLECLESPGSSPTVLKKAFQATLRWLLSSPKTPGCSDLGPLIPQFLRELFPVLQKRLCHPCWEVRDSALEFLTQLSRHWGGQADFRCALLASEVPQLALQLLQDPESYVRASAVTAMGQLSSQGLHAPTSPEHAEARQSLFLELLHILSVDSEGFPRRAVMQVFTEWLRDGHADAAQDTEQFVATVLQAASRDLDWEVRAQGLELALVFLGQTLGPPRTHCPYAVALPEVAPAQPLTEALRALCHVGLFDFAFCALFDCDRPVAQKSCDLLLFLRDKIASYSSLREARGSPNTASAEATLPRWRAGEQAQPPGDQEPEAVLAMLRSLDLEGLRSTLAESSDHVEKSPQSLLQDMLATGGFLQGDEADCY
# UniProt P56945: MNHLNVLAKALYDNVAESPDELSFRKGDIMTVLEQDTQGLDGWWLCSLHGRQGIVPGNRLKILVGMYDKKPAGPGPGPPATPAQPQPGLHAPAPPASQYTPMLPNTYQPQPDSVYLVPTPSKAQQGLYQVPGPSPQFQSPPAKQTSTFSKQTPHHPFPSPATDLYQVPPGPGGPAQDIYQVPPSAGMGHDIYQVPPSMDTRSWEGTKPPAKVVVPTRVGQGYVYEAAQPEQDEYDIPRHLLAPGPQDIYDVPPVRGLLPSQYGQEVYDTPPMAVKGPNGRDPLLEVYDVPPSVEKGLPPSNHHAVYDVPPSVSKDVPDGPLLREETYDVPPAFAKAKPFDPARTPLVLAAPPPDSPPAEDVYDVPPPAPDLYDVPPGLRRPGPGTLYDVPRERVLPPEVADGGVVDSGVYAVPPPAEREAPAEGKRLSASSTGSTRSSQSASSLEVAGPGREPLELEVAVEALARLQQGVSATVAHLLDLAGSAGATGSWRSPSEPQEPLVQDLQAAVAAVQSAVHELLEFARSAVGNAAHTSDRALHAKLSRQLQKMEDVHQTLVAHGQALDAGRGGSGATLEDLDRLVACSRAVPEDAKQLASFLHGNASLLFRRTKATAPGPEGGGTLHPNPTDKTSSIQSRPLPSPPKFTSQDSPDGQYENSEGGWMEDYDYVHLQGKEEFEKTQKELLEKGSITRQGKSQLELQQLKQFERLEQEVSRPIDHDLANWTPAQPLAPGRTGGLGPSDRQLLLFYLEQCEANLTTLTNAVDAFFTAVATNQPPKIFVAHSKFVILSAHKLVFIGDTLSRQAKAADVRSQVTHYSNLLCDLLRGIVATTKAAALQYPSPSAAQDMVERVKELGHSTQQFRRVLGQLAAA
# UniProt Q8WUW1: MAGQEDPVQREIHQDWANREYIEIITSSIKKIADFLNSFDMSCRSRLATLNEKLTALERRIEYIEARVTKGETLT
# UniProt O75934: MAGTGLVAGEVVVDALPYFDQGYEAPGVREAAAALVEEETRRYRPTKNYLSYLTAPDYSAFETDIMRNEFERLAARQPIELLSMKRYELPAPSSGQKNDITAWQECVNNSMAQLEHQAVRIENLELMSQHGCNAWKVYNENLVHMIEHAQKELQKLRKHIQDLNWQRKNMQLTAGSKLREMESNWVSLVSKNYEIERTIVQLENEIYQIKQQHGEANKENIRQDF
# UniProt Q9NUP1: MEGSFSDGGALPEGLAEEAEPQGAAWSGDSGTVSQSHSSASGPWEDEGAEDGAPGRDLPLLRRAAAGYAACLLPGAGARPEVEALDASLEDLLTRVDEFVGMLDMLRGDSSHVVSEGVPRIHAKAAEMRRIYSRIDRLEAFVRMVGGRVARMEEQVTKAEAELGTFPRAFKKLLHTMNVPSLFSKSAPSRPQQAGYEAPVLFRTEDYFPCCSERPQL
# This is one part of the list.
# What was measured:
# Assay in all cases: log2 fold change, soluble protein after heating vs DMSO (PISA); higher = thermal stabilisation; K562 lysate, 10 uM; active = over 0.2 and 3.5 SD of the protein, either way, in both replicates (recomputed)
# lapatinib = compound: CS(=O)(=O)CCNCc1ccc(-c2ccc3ncnc(Nc4ccc(OCc5cccc(F)c5)c(Cl)c4)c3c2)o1 [lapatinib]
# Summary of the method: (§1)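 Quantification was by TMTpro 16plex LC-MS/MS with equalised channel sums, applied to the supernatant after 21,000xg for 90 min. Samples were crude K562 extract at 1 mg/mL protein in PBS pH 7.4 with 1 mM MgCl2, treated with 10 μM compound for 30 min, heated for 3 min across 48°C-58°C, pooled and brought to 0.5% NP-40 at 4°C. Values are log-two fold changes in thermal stability relative to solvent controls, from duplicates.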
# pictilisib = compound: CS(=O)(=O)N1CCN(Cc2cc3nc(-c4cccc5[nH]ncc45)nc(N4CCOCC4)c3s2)CC1 [pictilisib]
# Summary of the method: as §1
# crizotinib = compound: C[C@@H](Oc1cc(-c2cnn(C3CCNCC3)c2)cnc1N)c1c(Cl)ccc(F)c1Cl [crizotinib]
# Summary of the method: as §1
# [1] = compound: C[C@H](C1=CC=C(C=C1)C(=O)NC2=C3C=CNC3=NC=C2)N
# Summary of the method: as §1
# duvelisib = compound: C[C@H](Nc1ncnc2nc[nH]c12)c1cc2cccc(Cl)c2c(=O)n1-c1ccccc1 [duvelisib]
# Summary of the method: as §1
# gandotinib = compound: Cc1cc(Nc2cc(CN3CCOCC3)c3nc(C)c(Cc4ccc(Cl)cc4F)n3n2)n[nH]1 [gandotinib]
# Summary of the method: as §1
# tozasertib = compound: Cc1cc(Nc2cc(N3CCN(C)CC3)nc(Sc3ccc(NC(=O)C4CC4)cc3)n2)n[nH]1 [tozasertib]
# Summary of the method: as §1
# doramapimod = compound: Cc1ccc(-n2nc(C(C)(C)C)cc2NC(=O)Nc2ccc(OCCN3CCOCC3)c3ccccc23)cc1 [doramapimod]
# Summary of the method: as §1
# bafetinib = compound: Cc1ccc(NC(=O)c2ccc(CN3CC[C@H](N(C)C)C3)c(C(F)(F)F)c2)cc1Nc1nccc(-c2cncnc2)n1 [bafetinib]
# Summary of the method: as §1
# [2] = compound: Cc1cccc(CC(=O)N2CCc3c2ccc(-c2cn(C)c4ncnc(N)c24)c3F)n1
# Summary of the method: as §1
# nilotinib = compound: Cc1cn(-c2cc(NC(=O)c3ccc(C)c(Nc4nccc(-c5cccnc5)n4)c3)cc(C(F)(F)F)c2)cn1 [nilotinib]
# Summary of the method: as §1
# [3] = compound: Cc1nc(Nc2n[nH]c3c2CN(C(=O)N[C@H](CN(C)C)c2ccccc2)C3(C)C)c2sccc2n1
# Summary of the method: as §1
# dasatinib = compound: Cc1nc(Nc2ncc(C(=O)Nc3c(C)cccc3Cl)s2)cc(N2CCN(CCO)CC2)n1 [dasatinib]
# Summary of the method: as §1
# [4] = compound: Cc1ncc(-c2ccnc(Nc3ccc(S(C)(=O)=O)cc3)n2)n1C(C)C
# Summary of the method: as §1
# [5] = compound: Cn1cc(-c2ccc3c(c2)CCN3C(=O)Cc2cccc(C(F)(F)F)c2)c2c(N)ncnc21
# Summary of the method: as §1
# quisinostat = compound: Cn1cc(CNCC2CCN(c3ncc(C(=O)NO)cn3)CC2)c2ccccc21 [quisinostat]
# Summary of the method: as §1
# tipifarnib = compound: Cn1cncc1[C@@](N)(c1ccc(Cl)cc1)c1ccc2c(c1)c(-c1cccc(Cl)c1)cc(=O)n2C [tipifarnib]
# Summary of the method: as §1
# [6] = compound: NC(=O)Nc1cc(-c2cccc(F)c2)sc1C(=O)N[C@H]1CCCNC1
# Summary of the method: as §1
# [7] = compound: NC(=O)c1cnc(N[C@@H]2CCCC[C@@H]2N)nc1Nc1cccc(-n2nccn2)c1
# Summary of the method: as §1
# [8] = compound: NC1(c2ccc(-c3nc4ccn5c(=O)[nH]nc5c4cc3-c3ccccc3)cc2)CCC1
# Summary of the method: as §1
Target,log2 fold change (lapatinib),log2 fold change (pictilisib),log2 fold change (crizotinib),log2 fold change [1],log2 fold change (duvelisib),log2 fold change (gandotinib),log2 fold change (tozasertib),log2 fold change (doramapimod),log2 fold change (bafetinib),log2 fold change [2],log2 fold change (nilotinib),log2 fold change [3],log2 fold change (dasatinib),log2 fold change [4],log2 fold change [5],log2 fold change (quisinostat),log2 fold change (tipifarnib),log2 fold change [6],log2 fold change [7],log2 fold change [8]
BAIAP2 (UniProt Q9UQB8),inactive: 0.022,inactive: 0.015,inactive: 0.015,inactive: 0.062,inactive: -0.045,inactive: -0.099,inactive: -0.03,inactive: 0.185,inactive: 0.035,inactive: -0.063,inactive: -0.002,inactive: -0.008,inactive: 0.002,inactive: -0.005,inactive: -0.01,inactive: 0.003,inactive: -0.048,inactive: -0.019,inactive: 0.014,inactive: 0.007
BCL2L2 isoform 2 (UniProt Q92843),inactive: -0.028,inactive: 0.025,inactive: -0.002,inactive: 0.001,inactive: -0.02,inactive: 0.039,inactive: -0.017,inactive: 0.035,inactive: -0.064,inactive: 0.028,inactive: -0.015,inactive: -0.018,inactive: 0.013,inactive: 0.039,inactive: 0.017,inactive: -0.041,inactive: 0.049,inactive: -0.03,inactive: 0.003,inactive: 0.037
BCLAF1 (UniProt Q9NYF8),inactive: -0.001,inactive: 0.036,inactive: 0.009,inactive: 0.088,inactive: -0.011,inactive: -0.024,inactive: -0.12,inactive: -0.032,inactive: -0.014,inactive: 0.012,inactive: 0.012,inactive: 0.07,inactive: 0.019,inactive: -0.01,inactive: 0.053,inactive: 0.103,inactive: -0.005,inactive: -0.042,inactive: -0.011,inactive: -0.051
BAX isoform 2 (UniProt Q07812),inactive: 0.03,inactive: -0.012,inactive: -0.054,inactive: 0.018,inactive: 0.007,inactive: -0.008,inactive: -0.009,inactive: 0.031,inactive: -0.009,inactive: -0.026,inactive: -0.065,inactive: -0.03,inactive: 0.012,inactive: 0.034,inactive: 0.01,inactive: -0.014,inactive: 0.013,inactive: 0.003,inactive: -0.018,inactive: -0.005
BRCC3 (UniProt P46736),inactive: -0.022,inactive: -0.018,inactive: -0.027,inactive: -0.073,inactive: 0.068,inactive: 0.039,inactive: 0.044,inactive: 0.063,inactive: -0.03,inactive: -0.011,inactive: 0.026,inactive: 0.043,inactive: 0,inactive: 0.017,inactive: 0.032,inactive: -0.01,inactive: 0.023,inactive: -0.011,inactive: -0.012,inactive: 0.008
BOP1 (UniProt Q14137),inactive: -0.002,inactive: -0.003,inactive: -0.017,inactive: 0.001,inactive: -0.002,inactive: -0.03,inactive: 0.021,inactive: 0.016,inactive: -0.019,inactive: 0.015,inactive: -0.009,inactive: 0.004,inactive: -0.022,inactive: 0.005,inactive: -0.006,inactive: -0.02,inactive: 0.008,inactive: 0.01,inactive: 0.02,inactive: 0.002
BSDC1 (UniProt Q9NW68),inactive: 0.088,inactive: -0.055,inactive: 0.012,inactive: -0.052,inactive: 0.016,active: 0.312,inactive: -0.005,inactive: 0.098,inactive: -0.012,inactive: 0.019,inactive: 0.016,inactive: -0.009,inactive: 0.018,inactive: 0.027,inactive: -0.018,inactive: -0.024,inactive: -0.093,inactive: 0.003,inactive: -0.023,inactive: 0.016
BAP1 (UniProt Q92560),inactive: -0.036,inactive: -0.155,inactive: 0.045,inactive: -0.066,inactive: 0.037,inactive: 0.029,inactive: -0.025,inactive: -0.069,inactive: -0.081,inactive: -0.018,inactive: 0.034,inactive: -0.026,inactive: -0.014,inactive: -0.025,inactive: 0.024,inactive: 0.033,inactive: -0.046,inactive: 0.107,inactive: 0.021,inactive: -0.007
BCL7B (UniProt Q9BQE9),inactive: -0.061,inactive: 0.149,inactive: 0.065,inactive: 0.279,inactive: 0.028,inactive: -0.209,inactive: -0.159,inactive: -0.065,inactive: -0.371,inactive: -0.215,inactive: 0.074,inactive: 0.008,inactive: -0.213,inactive: -0.036,inactive: 0,inactive: 0.112,inactive: 0.142,inactive: -0.119,inactive: 0.105,inactive: 0.038
BANF1 (UniProt O75531),inactive: 0.037,inactive: 0.024,inactive: 0.023,inactive: -0.14,inactive: 0.014,inactive: 0.046,inactive: -0.05,inactive: -0.053,inactive: 0.023,inactive: 0.078,inactive: 0.053,inactive: -0.088,inactive: -0.004,inactive: 0.043,inactive: -0.031,inactive: -0.013,inactive: -0.007,inactive: -0.04,inactive: 0.018,inactive: -0.016
BNIP2 (UniProt J3KN59),inactive: -0.015,inactive: -0.036,inactive: -0.017,inactive: -0.09,inactive: -0.067,inactive: 0.025,inactive: 0.12,inactive: 0.008,inactive: 0.078,inactive: 0.029,inactive: 0.108,inactive: -0.013,inactive: 0.01,inactive: 0.172,inactive: 0.001,inactive: 0.053,inactive: 0.027,inactive: 0.014,inactive: -0.03,inactive: 0.027
BRAT1 (UniProt Q6PJG6),inactive: 0.026,inactive: -0.013,inactive: -0.103,inactive: 0,inactive: -0.001,inactive: -0.1,inactive: 0.017,inactive: 0.052,inactive: -0.014,inactive: 0.038,inactive: 0.031,inactive: -0.016,inactive: -0.046,inactive: 0.01,inactive: 0.046,inactive: -0.07,inactive: 0,inactive: 0.008,inactive: 0.047,inactive: -0.017
BCAR1 isoform 6 (UniProt P56945),inactive: -0.044,inactive: 0.003,inactive: 0.003,inactive: 0.071,inactive: 0.008,inactive: -0.113,inactive: 0.01,inactive: -0.039,inactive: -0.073,inactive: -0.104,inactive: -0.021,inactive: -0.015,inactive: 0.001,inactive: -0.068,inactive: 0.018,inactive: 0.021,inactive: -0.006,inactive: 0.016,inactive: -0.009,inactive: 0.008
BRK1 isoform 2 (UniProt Q8WUW1),inactive: 0.021,inactive: 0.009,inactive: 0.095,inactive: 0.162,inactive: 0.001,inactive: -0.148,inactive: -0.001,inactive: 0,inactive: 0.005,inactive: -0.072,inactive: 0.048,inactive: 0.003,inactive: 0.024,inactive: 0.131,inactive: 0.001,inactive: 0.187,inactive: 0.006,inactive: -0.051,inactive: -0.008,inactive: 0.023
BCAS2 (UniProt O75934),inactive: 0.003,inactive: -0.017,inactive: 0.004,inactive: 0.017,inactive: -0.005,inactive: -0.014,inactive: -0.018,inactive: 0.053,inactive: -0.055,inactive: 0.001,inactive: 0.073,inactive: -0.06,inactive: -0.002,inactive: 0.026,inactive: 0.037,inactive: -0.021,inactive: -0.03,inactive: 0.009,inactive: -0.011,inactive: -0.008
BLOC1S4 (UniProt Q9NUP1),inactive: -0.001,inactive: -0.093,inactive: 0.022,inactive: 0.026,inactive: -0.077,inactive: -0.03,inactive: -0.017,inactive: -0.021,inactive: 0.036,inactive: -0.05,inactive: -0.005,inactive: -0.026,inactive: -0.041,inactive: -0.002,inactive: -0.07,inactive: -0.033,inactive: 0.01,inactive: 0.028,inactive: -0.016,inactive: -0.019

# An excerpt of these results, tab-delimited.
Target	log2 fold change (lapatinib)	log2 fold change (pictilisib)	log2 fold change (crizotinib)	log2 fold change [1]	log2 fold change (duvelisib)	log2 fold change (gandotinib)	log2 fold change (tozasertib)	log2 fold change (doramapimod)	log2 fold change (bafetinib)	log2 fold change [2]	log2 fold change (nilotinib)	log2 fold change [3]	log2 fold change (dasatinib)	log2 fold change [4]	log2 fold change [5]	log2 fold change (quisinostat)	log2 fold change (tipifarnib)	log2 fold change [6]	log2 fold change [7]	log2 fold change [8]
BCLAF1 (UniProt Q9NYF8)	inactive: -0.001	inactive: 0.036	inactive: 0.009	inactive: 0.088	inactive: -0.011	inactive: -0.024	inactive: -0.12	inactive: -0.032	inactive: -0.014	inactive: 0.012	inactive: 0.012	inactive: 0.07	inactive: 0.019	inactive: -0.01	inactive: 0.053	inactive: 0.103	inactive: -0.005	inactive: -0.042	inactive: -0.011	inactive: -0.051
BCAS2 (UniProt O75934)	inactive: 0.003	inactive: -0.017	inactive: 0.004	inactive: 0.017	inactive: -0.005	inactive: -0.014	inactive: -0.018	inactive: 0.053	inactive: -0.055	inactive: 0.001	inactive: 0.073	inactive: -0.06	inactive: -0.002	inactive: 0.026	inactive: 0.037	inactive: -0.021	inactive: -0.03	inactive: 0.009	inactive: -0.011	inactive: -0.008
